Assay results as given in patent US20200010903A1, “AAV-Mediated Direct In vivo CRISPR Screen in Glioblastoma” (YALE UNIVERSITY, priority 2017, published 2020).
At least one compound was matched to its structure with a doubt left.

Columns and labels:
[1] = system: Rb1; Pten GBM cells; assay: TMZ treatment, cell viability assay (CellTiter Glo); type: cell-based, mouse; settings: 3 days, n=3
[2] = system: Rb1; Zc3h13 GBM cells; assay: as above; type: cell-based, mouse; settings: 3 days, n=3

Cn1nnc2c(C(N)=O)ncn2c1=O [TMZ, temozolomide]
survival fraction compared with Rb1 cells ([1]; 1 mM TMZ): significantly higher survival fractions than Rb1 cells | survival fraction compared with Rb1 cells ([1]; 2 mM TMZ): significantly higher survival fractions than Rb1 cells | survival fraction compared with Rb1 cells ([2]; 1 mM TMZ): significantly higher survival fractions than Rb1 cells | survival fraction compared with Rb1 cells ([2]; 2 mM TMZ): significantly higher survival fractions than Rb1 cells
